These are yes or no findings as the source states them, for the method shown. In cells and extracts the contact can be indirect. These calls come from enrichment with a bait or labelling near it, and not all partners need be listed. Tags and fused reporters may be left off the sequences shown.
T1: Psb29-FLAG (Synechocystis sp. PCC 6803 Psb29 with a C-terminal 3xFLAG tag) (Synechocystis sp. PCC 6803) (UniProt P73956)
T1 sequence: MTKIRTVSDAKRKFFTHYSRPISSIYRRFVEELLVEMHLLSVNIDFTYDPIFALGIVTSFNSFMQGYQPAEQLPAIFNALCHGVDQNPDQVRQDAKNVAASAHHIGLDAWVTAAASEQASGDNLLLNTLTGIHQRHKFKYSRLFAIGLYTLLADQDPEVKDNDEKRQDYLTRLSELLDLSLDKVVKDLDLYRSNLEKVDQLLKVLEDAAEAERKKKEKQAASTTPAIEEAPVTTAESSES

T2: FtsH2-FLAG (Synechocystis sp. PCC 6803 FtsH2 with a C-terminal 3xFLAG tag) (Synechocystis sp. PCC 6803) (UniProt Q55700)
T2 sequence: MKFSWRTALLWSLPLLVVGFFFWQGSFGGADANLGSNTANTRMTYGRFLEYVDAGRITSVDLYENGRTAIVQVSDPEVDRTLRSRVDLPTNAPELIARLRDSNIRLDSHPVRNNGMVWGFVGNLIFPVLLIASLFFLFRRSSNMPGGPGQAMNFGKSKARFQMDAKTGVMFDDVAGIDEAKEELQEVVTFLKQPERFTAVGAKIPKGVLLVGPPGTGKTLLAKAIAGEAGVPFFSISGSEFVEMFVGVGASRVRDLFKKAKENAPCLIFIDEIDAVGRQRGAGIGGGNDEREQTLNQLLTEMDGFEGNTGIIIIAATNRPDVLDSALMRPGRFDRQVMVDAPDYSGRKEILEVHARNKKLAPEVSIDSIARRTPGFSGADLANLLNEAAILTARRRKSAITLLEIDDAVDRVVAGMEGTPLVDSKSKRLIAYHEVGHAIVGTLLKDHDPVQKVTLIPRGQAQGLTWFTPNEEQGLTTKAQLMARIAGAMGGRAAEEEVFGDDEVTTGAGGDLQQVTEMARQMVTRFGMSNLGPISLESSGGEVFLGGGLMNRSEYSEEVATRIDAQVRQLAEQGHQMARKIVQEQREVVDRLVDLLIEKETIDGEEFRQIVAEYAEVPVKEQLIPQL


Target: T1, Psb29-FLAG (Synechocystis sp. PCC 6803 Psb29 with a C-terminal 3xFLAG tag) (Synechocystis sp. PCC 6803)
Assay: affinity purification with mass spectrometry; anti-FLAG immunoaffinity purification of Psb29-FLAG from detergent-solubilised membranes; 2D clear-native/SDS-PAGE; proteins detected by Coomassie staining, immunoblotting and mass spectrometry

Row | Molecule | binding
1 | prohibitin (Phb1) | binds
2 | FtsH2 (Synechocystis sp. PCC 6803) (enzyme, UniProt Q55700 1-627) MKFSWRTALLWSLPLLVVGFFFWQGSFGGADANLGSNTANTRMTYGRFLEYVDAGRITSVDLYENGRTAIVQVSDPEVDRTLRSRVDLPTNAPELIARLRDSNIRLDSHPVRNNGMVWGFVGNLIFPVLLIASLFFLFRRSSNMPGGPGQAMNFGKSKARFQMDAKTGVMFDDVAGIDEAKEELQEVVTFLKQPERFTAVGAKIPKGVLLVGPPGTGKTLLAKAIAGEAGVPFFSISGSEFVEMFVGVGASRVRDLFKKAKENAPCLIFIDEIDAVGRQRGAGIGGGNDEREQTLNQLLTEMDGFEGNTGIIIIAATNRPDVLDSALMRPGRFDRQVMVDAPDYSGRKEILEVHARNKKLAPEVSIDSIARRTPGFSGADLANLLNEAAILTARRRKSAITLLEIDDAVDRVVAGMEGTPLVDSKSKRLIAYHEVGHAIVGTLLKDHDPVQKVTLIPRGQAQGLTWFTPNEEQGLTTKAQLMARIAGAMGGRAAEEEVFGDDEVTTGAGGDLQQVTEMARQMVTRFGMSNLGPISLESSGGEVFLGGGLMNRSEYSEEVATRIDAQVRQLAEQGHQMARKIVQEQREVVDRLVDLLIEKETIDGEEFRQIVAEYAEVPVKEQLIPQL | binds
3 | FtsH3 (Synechocystis sp. PCC 6803) (enzyme, UniProt P72991 1-616) MSKNNKKWRNAGLYALLLIVVLALASAFFDRPTQTRETLSYSDFVNRVEANQIERVNLSADRTQAQVPNPSGGPPYLVNLPNDPDLINILTQHNVDIAVQPQSDEGFWFRIASTLFLPILLLVGIFFLFRRAQSGPGSQAMNFGKSKARVQMEPQTQVTFGDVAGIEQAKLELTEVVDFLKNADRFTELGAKIPKGVLLVGPPGTGKTLLAKAVAGEAGVPFFSISGSEFVEMFVGVGASRVRDLFEQAKANAPCIVFIDEIDAVGRQRGAGLGGGNDEREQTLNQLLTEMDGFEGNTGIIIVAATNRPDVLDSALMRPGRFDRQVVVDRPDYAGRREILNVHARGKTLSQDVDLDKIARRTPGFTGADLSNLLNEAAILAARRNLTEISMDEVNDAIDRVLAGPEKKNRVMSEKRKTLVAYHEAGHALVGALMPDYDPVQKISIIPRGRAGGLTWFTPSEDRMESGLYSRSYLQNQMAVALGGRIAEEIIFGEEEVTTGASNDLQQVARVARQMVTRFGMSDRLGPVALGRQGGGVFLGRDIASDRDFSDETAAAIDEEVSQLVDQAYQRAKQVLVENRGILDQLAEILVEKETVDSEELQTLLANNNAKLALLV | binds
4 | FtsH1 (Synechocystis sp. PCC 6803) (enzyme, UniProt P73179 1-665) MSHRPRSDRHSFSSPSRFWHRLGMGLLVAGTLALPVSTLAQEGGEGAQPKASPSPIQSPNSSNGEATPRSFFNSGSPRSAEPKMNYGQLIDAIKANQVAKVEVDTNRRQAIVTLKDAPPGSKPQTVQLLDNNPELLNLLRSRSETIDLDINRTPDNSALYGLLTNLLVVAILIGLVVMVVRRSANASGQAMSFGKSKARFQMEAKTGVGFDDVAGIDEAKEELQEVVTFLKQPEKFTAIGAKIPRGVLLIGPPGTGKTLLAKAIAGEAGVPFFSISGSEFVEMFVGVGASRVRDLFKKAKENAPCLVFIDEIDAVGRQRGVGYGGGNDEREQTLNQLLTEMDGFEGNSGIIVIAATNRPDVLDLALLRPGRFDRQVTVDYPDVQGRELILAIHAQNKKLHEEVQLAAIARRTPGFTGADLANVLNEAAIFTARRRKEAITMAEVNDAIDRVVAGMEGTPLVDSKSKRLIAYHEVGHALIGTLCPGHDPVEKVTLIPRGQAQGLTWFTPDEDQSLMTRNQMIARIAGLLGGRVAEEVIFGDDEVTTGAGNDIEKITYLARQMVTKLGMSSLGLVALEEEGDRNFSGGDWGKRSEYSEDIAARIDREIQAIVTAAHQRATRIIEENRNLMDLLVDALIDQETIEGEHFRQLVESYQQSQKQPALAGK | binds
5 | Phb3 (protein, UniProt P72655 1-321) MEAFFLFFLVFFGSAIGTSVKIVNEKNEYLVERLGSYNKKLTPGLNFTVPILDRVVFKQTTREKVIDIPPQSCITKDNVAITADAVVYWRIIDMEKAYYKVENLQSAMVNLVLTQIRSEIGKLELDQTFTARTEINELLLRELDISTDPWGVKVTRVELRDIMPSKAVLDSMELQMTAERKKRAAILTSEGQRDSAINSAQGDAQARVLEAEAKKKAAILNAEAEQQKKVLEAKATAEALSILTEKLSSDNHAREALQFLLAQQYLNMGTTIGSSDSSKVMFLDPRNILSTLEGVRSIVGDGALDEGLEAALNKVDRHRAV | binds

Target: T2, FtsH2-FLAG (Synechocystis sp. PCC 6803 FtsH2 with a C-terminal 3xFLAG tag) (Synechocystis sp. PCC 6803)
Assay: affinity purification with mass spectrometry; anti-FLAG immunoaffinity purification of FtsH2-FLAG from detergent-solubilised membranes; 2D gel stained with SYPRO Orange; proteins detected by mass spectrometry

Row | Molecule | binding
6 | FtsH3 (Synechocystis sp. PCC 6803) (enzyme, UniProt P72991 1-616) MSKNNKKWRNAGLYALLLIVVLALASAFFDRPTQTRETLSYSDFVNRVEANQIERVNLSADRTQAQVPNPSGGPPYLVNLPNDPDLINILTQHNVDIAVQPQSDEGFWFRIASTLFLPILLLVGIFFLFRRAQSGPGSQAMNFGKSKARVQMEPQTQVTFGDVAGIEQAKLELTEVVDFLKNADRFTELGAKIPKGVLLVGPPGTGKTLLAKAVAGEAGVPFFSISGSEFVEMFVGVGASRVRDLFEQAKANAPCIVFIDEIDAVGRQRGAGLGGGNDEREQTLNQLLTEMDGFEGNTGIIIVAATNRPDVLDSALMRPGRFDRQVVVDRPDYAGRREILNVHARGKTLSQDVDLDKIARRTPGFTGADLSNLLNEAAILAARRNLTEISMDEVNDAIDRVLAGPEKKNRVMSEKRKTLVAYHEAGHALVGALMPDYDPVQKISIIPRGRAGGLTWFTPSEDRMESGLYSRSYLQNQMAVALGGRIAEEIIFGEEEVTTGASNDLQQVARVARQMVTRFGMSDRLGPVALGRQGGGVFLGRDIASDRDFSDETAAAIDEEVSQLVDQAYQRAKQVLVENRGILDQLAEILVEKETVDSEELQTLLANNNAKLALLV | binds
7 | Psb29 (Synechocystis sp. PCC 6803), endogenous (protein, UniProt P73956 1-240) MTKIRTVSDAKRKFFTHYSRPISSIYRRFVEELLVEMHLLSVNIDFTYDPIFALGIVTSFNSFMQGYQPAEQLPAIFNALCHGVDQNPDQVRQDAKNVAASAHHIGLDAWVTAAASEQASGDNLLLNTLTGIHQRHKFKYSRLFAIGLYTLLADQDPEVKDNDEKRQDYLTRLSELLDLSLDKVVKDLDLYRSNLEKVDQLLKVLEDAAEAERKKKEKQAASTTPAIEEAPVTTAESSES | binds

Source: paper PMC5566888
